Literature values in US20090318371A1 (priority 2006, published 2009).
For at least one compound, name, drawing or mass did not settle the structure.

Test system: Propionibacterium acnes

## CCC[C@@H]1C[C@@H](C(=O)N[C@@H]([C@H]2O[C@H](SC)[C@H](O)[C@@H](O)[C@H]2O)[C@H](C)Cl)N(C)C1 [Clindamycin]
  Activity against Propionibacterium acnes: has shown activity against Propionibacterium acnes
